Measurements taken from paper PMC7063196.
Results are given in words; binding and its absence hold for the method and conditions named. Some binding calls cover weakened binding; strength is not graded here.

By UniProt entry, the sequences of proteins in these tests, tags left out. Residues count along the entry.
UniProt O35235, residues 139-316: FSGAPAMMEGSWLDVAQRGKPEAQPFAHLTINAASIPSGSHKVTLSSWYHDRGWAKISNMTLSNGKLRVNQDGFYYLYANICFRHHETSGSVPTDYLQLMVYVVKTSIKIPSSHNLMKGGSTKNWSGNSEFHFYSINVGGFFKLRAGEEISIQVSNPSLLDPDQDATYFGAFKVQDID

Target: T1, receptor activator of nuclear factor kappa-Β (RANK), endogenous in RAW264.7 cells (mouse (endogenous in RAW264.7)) (UniProt O35305)
T1 sequence: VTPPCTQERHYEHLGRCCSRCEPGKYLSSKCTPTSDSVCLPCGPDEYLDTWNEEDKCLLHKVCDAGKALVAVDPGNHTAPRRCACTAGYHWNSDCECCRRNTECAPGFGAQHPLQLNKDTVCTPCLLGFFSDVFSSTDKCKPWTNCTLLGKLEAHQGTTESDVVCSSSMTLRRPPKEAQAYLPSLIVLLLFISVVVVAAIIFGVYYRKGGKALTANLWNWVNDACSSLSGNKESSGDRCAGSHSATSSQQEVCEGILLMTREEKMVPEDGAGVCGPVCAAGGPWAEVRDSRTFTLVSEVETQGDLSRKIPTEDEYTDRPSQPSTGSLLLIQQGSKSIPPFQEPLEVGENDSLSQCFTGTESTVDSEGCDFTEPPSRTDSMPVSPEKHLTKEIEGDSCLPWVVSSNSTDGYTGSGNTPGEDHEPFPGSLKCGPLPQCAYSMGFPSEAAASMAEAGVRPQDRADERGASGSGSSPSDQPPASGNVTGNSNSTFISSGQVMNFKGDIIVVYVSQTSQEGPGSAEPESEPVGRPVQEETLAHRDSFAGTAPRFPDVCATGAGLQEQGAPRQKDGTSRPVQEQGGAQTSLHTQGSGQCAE
Assay: immunoblot of cell-associated ligand; RAW264.7 cells cultured with 50 ng/mL RANKL with or without FHb (10 μmol/L heme group) for 5 days; cell-bound RANKL in whole-cell lysates detected by anti-RANKL immunoblot, normalized to GAPDH; only the binder purified

binding: binds
Substance: receptor activator of nuclear factor kappa-Β ligand (RANKL), purchased from Miltenyi Biotec (from UniProt O35235 139-316)
